Results: article PMC4178304
No constants are given. Whether binding was seen depends on the method and setting. Binding seen in cells or lysates may run through a third protein. A yes stands for co-enrichment or nearness to the bait. Other partners may have been found.

Amino acid sequences for entries named in this document (tags omitted).
UniProt Q2NKI2: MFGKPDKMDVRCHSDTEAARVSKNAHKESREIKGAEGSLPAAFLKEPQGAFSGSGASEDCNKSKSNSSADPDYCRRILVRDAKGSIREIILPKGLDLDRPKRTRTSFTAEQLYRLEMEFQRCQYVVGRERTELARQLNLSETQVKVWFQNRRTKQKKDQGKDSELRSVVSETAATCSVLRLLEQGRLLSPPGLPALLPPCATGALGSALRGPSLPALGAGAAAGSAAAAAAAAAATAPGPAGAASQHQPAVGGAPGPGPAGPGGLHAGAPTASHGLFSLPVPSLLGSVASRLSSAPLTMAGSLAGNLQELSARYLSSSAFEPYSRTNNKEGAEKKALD
UniProt Q99613: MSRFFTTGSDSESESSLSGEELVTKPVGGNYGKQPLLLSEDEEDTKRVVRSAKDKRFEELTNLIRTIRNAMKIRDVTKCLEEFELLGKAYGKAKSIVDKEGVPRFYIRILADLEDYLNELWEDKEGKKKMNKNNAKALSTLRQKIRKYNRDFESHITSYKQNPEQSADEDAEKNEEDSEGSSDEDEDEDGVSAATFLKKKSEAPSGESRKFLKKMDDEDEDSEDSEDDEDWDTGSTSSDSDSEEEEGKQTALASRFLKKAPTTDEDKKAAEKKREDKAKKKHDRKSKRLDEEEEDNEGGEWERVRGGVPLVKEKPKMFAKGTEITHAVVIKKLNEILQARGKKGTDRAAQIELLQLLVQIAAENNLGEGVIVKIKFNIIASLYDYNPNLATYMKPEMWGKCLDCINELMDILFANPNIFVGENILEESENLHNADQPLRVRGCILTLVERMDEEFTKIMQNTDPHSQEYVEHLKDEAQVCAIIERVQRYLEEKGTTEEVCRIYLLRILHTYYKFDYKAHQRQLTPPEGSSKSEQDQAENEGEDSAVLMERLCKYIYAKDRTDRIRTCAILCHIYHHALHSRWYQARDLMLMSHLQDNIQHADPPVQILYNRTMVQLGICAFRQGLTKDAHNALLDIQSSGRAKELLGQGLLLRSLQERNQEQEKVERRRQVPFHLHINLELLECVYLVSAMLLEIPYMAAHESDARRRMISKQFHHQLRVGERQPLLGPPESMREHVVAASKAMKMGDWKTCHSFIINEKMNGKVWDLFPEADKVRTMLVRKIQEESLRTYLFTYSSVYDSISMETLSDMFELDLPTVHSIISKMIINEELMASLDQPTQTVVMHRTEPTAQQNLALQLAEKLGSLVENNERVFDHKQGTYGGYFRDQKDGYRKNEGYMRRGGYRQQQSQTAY
UniProt P55884: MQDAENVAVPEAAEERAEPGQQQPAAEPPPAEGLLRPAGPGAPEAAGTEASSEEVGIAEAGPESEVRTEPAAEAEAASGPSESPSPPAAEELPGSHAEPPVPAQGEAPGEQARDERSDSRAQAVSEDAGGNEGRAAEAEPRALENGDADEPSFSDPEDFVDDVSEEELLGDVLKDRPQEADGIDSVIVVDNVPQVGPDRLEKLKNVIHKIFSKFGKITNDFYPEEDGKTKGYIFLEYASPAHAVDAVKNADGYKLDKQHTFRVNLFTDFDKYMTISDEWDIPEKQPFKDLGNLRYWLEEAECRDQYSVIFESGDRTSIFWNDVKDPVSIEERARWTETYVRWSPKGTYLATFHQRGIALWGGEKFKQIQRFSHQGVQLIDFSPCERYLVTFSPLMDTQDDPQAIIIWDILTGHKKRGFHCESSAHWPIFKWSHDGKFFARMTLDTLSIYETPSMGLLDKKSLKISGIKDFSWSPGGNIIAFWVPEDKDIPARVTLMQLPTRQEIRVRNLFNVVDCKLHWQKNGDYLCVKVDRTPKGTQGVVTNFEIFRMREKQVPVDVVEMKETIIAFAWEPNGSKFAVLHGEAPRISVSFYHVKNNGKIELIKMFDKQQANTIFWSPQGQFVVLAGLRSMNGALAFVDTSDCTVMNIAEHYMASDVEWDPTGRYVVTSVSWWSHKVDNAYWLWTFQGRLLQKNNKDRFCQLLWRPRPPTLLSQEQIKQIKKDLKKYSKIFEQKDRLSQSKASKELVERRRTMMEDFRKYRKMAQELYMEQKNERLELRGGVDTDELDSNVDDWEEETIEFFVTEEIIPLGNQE
UniProt P0DMV8: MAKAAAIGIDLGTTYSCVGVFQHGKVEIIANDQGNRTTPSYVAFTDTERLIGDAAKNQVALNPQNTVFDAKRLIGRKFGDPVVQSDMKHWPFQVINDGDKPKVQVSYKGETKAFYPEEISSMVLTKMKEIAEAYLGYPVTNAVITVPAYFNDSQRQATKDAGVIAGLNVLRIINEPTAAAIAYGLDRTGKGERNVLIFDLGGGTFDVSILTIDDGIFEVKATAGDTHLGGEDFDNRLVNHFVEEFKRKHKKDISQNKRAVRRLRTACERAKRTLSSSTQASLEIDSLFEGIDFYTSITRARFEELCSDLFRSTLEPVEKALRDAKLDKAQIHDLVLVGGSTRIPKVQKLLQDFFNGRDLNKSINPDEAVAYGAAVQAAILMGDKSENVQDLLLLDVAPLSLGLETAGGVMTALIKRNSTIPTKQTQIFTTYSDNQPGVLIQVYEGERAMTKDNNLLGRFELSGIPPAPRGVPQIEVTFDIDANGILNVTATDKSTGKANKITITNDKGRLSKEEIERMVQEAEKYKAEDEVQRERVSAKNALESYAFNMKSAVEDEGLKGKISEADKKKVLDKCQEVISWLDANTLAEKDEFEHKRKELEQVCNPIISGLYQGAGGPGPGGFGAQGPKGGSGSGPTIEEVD

target: GST-Vax1 (mouse) (UniProt Q2NKI2); assay: affinity purification with mass spectrometry; GST-Vax1 (control GST) from cytoplasmic fractions of transfected HEK293T cells on glutathione Sepharose 4B, 4°C 1 hr, 10 mM Tris-HCl pH 7.4, 200 mM NaCl, 1% NP-40; SDS-PAGE, silver stain, bands identified by MALDI-TOF

binding, binds:
Eukaryotic translation initiation factor (eIF) 3C (from UniProt Q99613 1-913)
Eukaryotic translation initiation factor (eIF) 3B (from UniProt P55884 1-814)
HSPA1A (heat shock 70-kDa protein 1A) (from UniProt P0DMV8 1-641)
